Test results: patent publication US12404312B2, “Engineered VEGF variants for retinal neuroprotection, promotion of axon growth and axon regeneration” (Massachusetts Eye and Ear Infirmary, priority 2018, dated 2025)

B1: eVEGF-38: engineered covalently linked dimer of VEGF121 isoform with a 38 amino acid glycine-rich linker connected to a GPI anchor (SEQ ID NO: 1) (protein)
chain: MNFLLSWVHWSLALLLYLHHAKWSQAAPMAEGGGQNHHEVVKFMDVYQRSYCHPIETLVDIFQEYPDEIEYIFKPSCVPLMRCGGCCNDEGLECVPTEESNITMQIMRIKPHQGQHIGEMSFLQHNKCECRPKKDRARQEKCDKPRRGGSSGGSSGGSGGGTGGGSGAPMAEGGGQNHHEVVKFMDVYQRSYCHPIETLVDIFQEYPDEIEYIFKPSCVPLMRCGGCCNDEGLECVPTEESNITMQIMRIKPHQGQHIGEMSFLQHNKCECRPKKDRARQEKCDKPRRGNGNGEQKLISEEDLKLAAAGNGGNGNGNGDGNGALCNGAGFATPVTLALVPALLATFWSLL
B2: eVEGF-53: engineered covalently linked dimer of VEGF121 isoform with a 53 amino acid glycine-rich linker connected to a GPI anchor (SEQ ID NO: 2) (protein)
chain: MNFLLSWVHWSLALLLYLHHAKWSQAAPMAEGGGQNHHEVVKFMDVYQRSYCHPIETLVDIFQEYPDEIEYIFKPSCVPLMRCGGCCNDEGLECVPTEESNITMQIMRIKPHQGQHIGEMSFLQHNKCECRPKKDRARQEKCDKPRRGGSSGGSSGGSGGGTGGGSGAPMAEGGGQNHHEVVKFMDVYQRSYCHPIETLVDIFQEYPDEIEYIFKPSCVPLMRCGGCCNDEGLECVPTEESNITMQIMRIKPHQGQHIGEMSFLQHNKCECRPKKDRARQEKCDKPRRGNGNGNGNGNGNGNEQKLISEEDLKLAAAGNGNGNGNGNGNGNGDGNGGALCNGAGFATPVTLALVPALLATFWSLL

Test system: human retinal endothelial cells (hREC)
Experiment: Transgene expression in hREC: cell lysate versus conditioned media
Type: cell-based

Molecule | transgene expression in cell lysate and conditioned media
B1 | detected in cell lysate but not in conditioned media
B2 | detected in cell lysate but not in conditioned media
